PubChem BioAssay AID1671195 – Yale University, 2021
In all, the deposit lists about 22,000 reagents; shown is a random part of them. About 1,510 of all reagents (6.9%) were called active. 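Active includes knockdowns raising or lowering LDL uptake; positive z-scores mean more uptake, negative mean less.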 Reagent sequences are not shown.

- Purpose: 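Knockdowns that increase or decrease uptake of fluorescent LDL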 (primary screen)
- Cell system: human Huh7 hepatoma cells
- Reagent: siRNA pool against human genes, 18 nM
- Timing: about 2 to 2.5 days of knockdown, then 8 h LDL uptake
- Challenge: DiI-labelled LDL at 30 µg/ml for 8 h, in lipoprotein-deficient serum medium
- Detection: 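Fluorescent LDL signal imaged in cells, scaled to the plate median, robust z-score for each replicate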
- Direction: robust z-score: higher = more LDL uptake after knockdown
- Hit rule: 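Active when two or more replicates show a robust z-score above 2 or below -2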

DNAJB9 → robust z-score, replicate 1: 0.0705; robust z-score, replicate 2: 0.146; robust z-score, replicate 3: 0.226; call: inactive
NDN → robust z-score, replicate 1: 0.908; robust z-score, replicate 2: 0.512; robust z-score, replicate 3: 1.55; call: inactive
LOC389149 (retired record) → robust z-score, replicate 1: 2.03; robust z-score, replicate 2: 1.27; robust z-score, replicate 3: 1.59; call: inactive
HLA-DOB → robust z-score, replicate 1: -1.69; robust z-score, replicate 2: -0.836; robust z-score, replicate 3: -1.37; call: inactive
STH → robust z-score, replicate 1: -0.39; robust z-score, replicate 2: -0.185; robust z-score, replicate 3: -0.346; call: inactive
AAMP → robust z-score, replicate 1: 0.626; robust z-score, replicate 2: -0.691; robust z-score, replicate 3: -0.652; call: inactive
MEN1 → robust z-score, replicate 1: 1.1; robust z-score, replicate 2: 0.695; robust z-score, replicate 3: 0.342; call: inactive
SPON1 → robust z-score, replicate 1: 0.619; robust z-score, replicate 2: 0.429; robust z-score, replicate 3: 0.248; call: inactive
TMEM198 → robust z-score, replicate 1: 0.129; robust z-score, replicate 2: -0.236; robust z-score, replicate 3: -0.341; call: inactive
LOC441959 (retired record) → robust z-score, replicate 1: -0.708; robust z-score, replicate 2: -0.17; robust z-score, replicate 3: -0.236; call: inactive
SNHG32 → robust z-score, replicate 1: -0.41; robust z-score, replicate 2: -1.04; robust z-score, replicate 3: -0.536; call: inactive
CFAP210 → robust z-score, replicate 1: 0.355; robust z-score, replicate 2: 1.74; robust z-score, replicate 3: -0.0635; call: inactive
